No constants are given. Whether binding was seen depends on the method and setting. In cells and extracts the contact can be indirect. Some results given as binding are weak or reduced against the parent protein; the word gives no strength. Sequences can lack the tags named with a protein.
T1: Myc-Smo^WT (Myc-tagged wild-type Drosophila Smoothened) (Drosophila) (UniProt P91682)
T1 sequence: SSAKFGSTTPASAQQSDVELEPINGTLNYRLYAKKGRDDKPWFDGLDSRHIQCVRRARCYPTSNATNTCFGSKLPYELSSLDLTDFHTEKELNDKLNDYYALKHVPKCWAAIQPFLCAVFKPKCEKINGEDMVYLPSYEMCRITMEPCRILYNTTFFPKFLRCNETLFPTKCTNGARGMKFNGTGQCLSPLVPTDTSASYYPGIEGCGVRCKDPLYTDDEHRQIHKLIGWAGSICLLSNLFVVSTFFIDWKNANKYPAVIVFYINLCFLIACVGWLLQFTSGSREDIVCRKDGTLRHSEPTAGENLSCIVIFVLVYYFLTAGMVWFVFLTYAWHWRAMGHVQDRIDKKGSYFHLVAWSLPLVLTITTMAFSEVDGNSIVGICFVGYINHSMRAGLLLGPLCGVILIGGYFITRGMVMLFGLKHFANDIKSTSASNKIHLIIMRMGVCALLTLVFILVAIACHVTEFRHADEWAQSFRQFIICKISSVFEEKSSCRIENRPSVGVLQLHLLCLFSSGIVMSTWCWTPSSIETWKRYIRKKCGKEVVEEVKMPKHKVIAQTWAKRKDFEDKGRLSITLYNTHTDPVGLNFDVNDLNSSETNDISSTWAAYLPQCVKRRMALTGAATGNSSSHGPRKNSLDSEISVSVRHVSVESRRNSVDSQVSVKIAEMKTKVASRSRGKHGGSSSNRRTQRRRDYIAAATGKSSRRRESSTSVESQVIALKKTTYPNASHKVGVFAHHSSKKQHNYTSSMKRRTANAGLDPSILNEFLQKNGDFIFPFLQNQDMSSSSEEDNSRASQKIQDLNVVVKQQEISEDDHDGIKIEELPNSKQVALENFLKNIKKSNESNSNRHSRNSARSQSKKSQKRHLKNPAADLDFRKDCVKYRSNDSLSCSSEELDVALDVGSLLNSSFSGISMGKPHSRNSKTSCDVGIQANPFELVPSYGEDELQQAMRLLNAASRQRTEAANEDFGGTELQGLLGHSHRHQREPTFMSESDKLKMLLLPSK

Amino acid sequences for entries named in this document (tags omitted). A change or cut given only in a name is not applied to a line headed by its entry.
UniProt O16844: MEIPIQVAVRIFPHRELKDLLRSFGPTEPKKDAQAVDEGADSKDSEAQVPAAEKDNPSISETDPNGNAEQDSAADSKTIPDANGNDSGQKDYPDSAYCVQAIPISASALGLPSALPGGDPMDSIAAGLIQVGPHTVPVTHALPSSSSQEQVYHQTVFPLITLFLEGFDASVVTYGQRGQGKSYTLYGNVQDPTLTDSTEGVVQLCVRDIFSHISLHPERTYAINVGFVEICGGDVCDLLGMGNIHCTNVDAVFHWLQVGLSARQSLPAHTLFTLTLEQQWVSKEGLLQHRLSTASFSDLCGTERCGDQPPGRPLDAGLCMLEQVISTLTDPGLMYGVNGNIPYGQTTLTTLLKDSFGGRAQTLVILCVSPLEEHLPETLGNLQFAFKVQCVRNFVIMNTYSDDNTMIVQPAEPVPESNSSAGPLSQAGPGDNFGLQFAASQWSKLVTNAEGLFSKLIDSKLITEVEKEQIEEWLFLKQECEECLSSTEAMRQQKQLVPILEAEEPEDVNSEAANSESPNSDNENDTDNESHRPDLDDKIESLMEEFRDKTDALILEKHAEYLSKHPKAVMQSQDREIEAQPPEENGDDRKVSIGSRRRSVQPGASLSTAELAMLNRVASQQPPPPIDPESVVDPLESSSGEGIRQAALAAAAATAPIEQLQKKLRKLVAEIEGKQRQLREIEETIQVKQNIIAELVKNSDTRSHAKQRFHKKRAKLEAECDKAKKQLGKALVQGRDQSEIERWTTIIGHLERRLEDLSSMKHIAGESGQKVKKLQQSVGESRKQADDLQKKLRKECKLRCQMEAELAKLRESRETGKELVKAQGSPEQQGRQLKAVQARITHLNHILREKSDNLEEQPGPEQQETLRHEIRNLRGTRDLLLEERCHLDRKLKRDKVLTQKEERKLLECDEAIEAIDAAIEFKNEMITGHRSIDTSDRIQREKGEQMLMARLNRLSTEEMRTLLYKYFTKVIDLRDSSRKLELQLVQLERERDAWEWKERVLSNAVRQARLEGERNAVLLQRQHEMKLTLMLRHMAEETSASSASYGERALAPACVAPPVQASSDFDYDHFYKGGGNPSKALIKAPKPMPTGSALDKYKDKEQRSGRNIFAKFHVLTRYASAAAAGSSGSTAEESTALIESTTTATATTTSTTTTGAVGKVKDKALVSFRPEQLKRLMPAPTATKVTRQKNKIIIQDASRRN

B1: Smo^WT with CFP or YFP tagged to its C-terminus (receptor, UniProt P91682 32-1036)
chain: T1 sequence

Legend:
[1] = molecular target: T1, Myc-Smo^WT (Myc-tagged wild-type Drosophila Smoothened) (Drosophila); test: co-IP; S2 cells transfected with the indicated constructs, treated with Hh-conditioned medium and/or PI(4)P; immunoprecipitation with anti-Myc to detect Smo-bound Cos2 and Fu
[2] = molecular target: Smo^WT with CFP or YFP tagged to its C-terminus (Drosophila) (UniProt P91682); test: FRET or BRET; FRET efficiency between Smo tagged with CFP or YFP at the C-terminus in transfected S2 cells; Hh-conditioned or control medium, carrier 3 or carrier 3 plus PI(4)P

Row | Molecule | binding [1] | binding [2]
1 | Costal2-Fused (Cos2-Fu) protein complex (from UniProt O16844 1-1201; P23647 1-805) | binds | 
2 | B1 |  | binds

Reference: PMC4749301
